Measured values taken from article PMC12711580, “Florigen activation complex forms via multifaceted assembly in Arabidopsis” (Nature, 2025).
Results are given in words; binding and its absence hold for the method and conditions named. For some assays here: Sequences can lack the tags named with a protein.

Protein sequences, listed by entry. Tags and fused reporters are not part of them.
UniProt Q96299: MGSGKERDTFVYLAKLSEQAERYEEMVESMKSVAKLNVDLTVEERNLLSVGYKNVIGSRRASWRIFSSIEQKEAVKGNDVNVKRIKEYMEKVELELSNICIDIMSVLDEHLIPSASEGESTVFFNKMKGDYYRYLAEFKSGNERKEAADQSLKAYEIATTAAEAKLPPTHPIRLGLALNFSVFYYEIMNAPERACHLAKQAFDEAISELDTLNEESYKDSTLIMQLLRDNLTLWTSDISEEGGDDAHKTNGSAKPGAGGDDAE
UniProt Q9SXZ2: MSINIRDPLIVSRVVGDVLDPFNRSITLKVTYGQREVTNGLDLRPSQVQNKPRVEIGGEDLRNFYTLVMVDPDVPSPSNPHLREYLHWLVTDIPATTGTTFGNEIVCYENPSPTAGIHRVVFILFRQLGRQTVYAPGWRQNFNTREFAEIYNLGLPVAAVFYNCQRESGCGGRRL

T1: GRF10 (14-3-3ε) (Arabidopsis thaliana) (UniProt P48347)
T1 sequence: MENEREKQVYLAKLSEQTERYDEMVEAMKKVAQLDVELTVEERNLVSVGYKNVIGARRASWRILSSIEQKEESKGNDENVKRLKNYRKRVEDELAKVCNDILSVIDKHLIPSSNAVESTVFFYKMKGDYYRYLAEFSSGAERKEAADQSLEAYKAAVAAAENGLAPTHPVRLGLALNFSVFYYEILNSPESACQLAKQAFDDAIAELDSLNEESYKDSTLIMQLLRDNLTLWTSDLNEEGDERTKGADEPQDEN

T2: GRF2 (14-3-3ω) (Arabidopsis thaliana) (UniProt Q01525)
T2 sequence: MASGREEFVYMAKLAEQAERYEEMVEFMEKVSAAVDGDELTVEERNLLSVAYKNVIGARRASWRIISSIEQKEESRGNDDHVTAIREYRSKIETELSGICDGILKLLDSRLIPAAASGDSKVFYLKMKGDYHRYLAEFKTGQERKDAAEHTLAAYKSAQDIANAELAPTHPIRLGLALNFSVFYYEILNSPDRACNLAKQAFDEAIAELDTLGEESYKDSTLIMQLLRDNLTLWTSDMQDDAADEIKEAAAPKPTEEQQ

T3: GRF6 (14-3-3ƛ) (Arabidopsis thaliana) (UniProt P48349)
T3 sequence: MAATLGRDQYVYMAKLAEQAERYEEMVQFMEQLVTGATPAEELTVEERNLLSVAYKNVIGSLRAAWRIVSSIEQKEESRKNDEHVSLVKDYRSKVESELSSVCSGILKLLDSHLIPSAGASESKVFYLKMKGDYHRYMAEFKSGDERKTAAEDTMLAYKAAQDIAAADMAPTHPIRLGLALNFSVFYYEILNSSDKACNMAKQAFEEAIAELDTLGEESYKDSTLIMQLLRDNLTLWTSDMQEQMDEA

T4: GRF7 (14-3-3ν), recombinant (Arabidopsis thaliana, UniProt Q96300 1-265)
T4 construct: GRF7 (14-3-3ν), Arabidopsis thaliana; cloned into pMAL-c5X-His or a modified pMAL-c5X vector; also called GRF7-6His; source: E. coli, purified (Ni-NTA, size-exclusion chromatography)
T4 sequence (looked up): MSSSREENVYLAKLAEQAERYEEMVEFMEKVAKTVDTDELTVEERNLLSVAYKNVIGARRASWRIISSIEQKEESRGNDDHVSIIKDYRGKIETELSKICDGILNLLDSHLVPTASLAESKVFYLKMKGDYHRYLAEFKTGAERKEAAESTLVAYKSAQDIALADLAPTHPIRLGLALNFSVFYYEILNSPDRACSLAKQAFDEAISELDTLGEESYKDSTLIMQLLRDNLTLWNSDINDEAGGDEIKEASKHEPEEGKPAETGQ


Columns and labels:
Assay in all cases: SEC; gel filtration of mixed purified proteins without DNA, fractions analysed on gel; both purified
[1] = biological target: T1, GRF10 (14-3-3ε) (Arabidopsis thaliana)
[2] = biological target: T2, GRF2 (14-3-3ω) (Arabidopsis thaliana)
[3] = biological target: T3, GRF6 (14-3-3ƛ) (Arabidopsis thaliana)
[4] = biological target: GRF9 (14-3-3μ) (Arabidopsis thaliana) (UniProt Q96299)
[5] = biological target: T4, GRF7 (14-3-3ν), recombinant

binding [1]	binding [2]	binding [3]	binding [4]	binding [5]	Molecule
no binding	no binding	no binding	no binding		FT (FLOWERING LOCUS T), recombinant, used in gel filtration (from UniProt Q9SXZ2 1-175)
				no binding	MBP-FD^(2–285 (T282A)) (protein, UniProt Q84JK2 2-285) LSSAKHQRNHRLSATNKNQTLTKVSSISSSSPSSSSSSSSTSSSSPLPSQDSQAQKRSLVTMEEVWNDINLASIHHLNRHSPHPQHNHEPRFRGQNHHNQNPNSIFQDFLKGSLNQEPAPTSQTTGSAPNGDSTTVTVLYSSPFPPPATVLSLNSGAGFEFLDNQDPLVTSNSNLHTHHHLSNAHAFNTSFEALVPSSSFGKKRGQDSNEGSGNRRHKRMIKNRESAARSRARKQAYTNELELEVAHLQAENARLKRQQDQLKMAAAIQQPKKNTLQRSSAAPF
